# Results of single-concentration screens

Measurements from “University of Dundee, Small-Polar-MMV Screening Library” (2021), ChEMBL document CHEMBL3988442.

A: 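Cell assay of Leishmania donovani living inside macrophages; the read-out is not stated. Compounds at 30 µM. The record gives no direction; compounds that gave an IC50 in retests scored well above the rest, so higher reads as stronger inhibition. Size under these conditions: about 69,000 compounds, about 1,000 of them at 50% or above in at least one test.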
B: 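Assay of Toxoplasma gondii numbers, read through their beta-galactosidase reporter with a colour substrate. Concentration: 10 µM. The record gives no direction; the compounds picked for IC50 retests had high values, so higher reads as fewer parasites. Size under these conditions: about 67,000 compounds, about 260 of them at 50% or above in at least one test.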

Values are the deposited “Percent Effect”, in %.
How 0% and 100% were set is not recorded. Most values in the screen are low, and negative values occur.
This is an unselected part of the compounds tested.

| compound | A | B |
|---|---|---|
| `Cc1nc(NC(=O)NC(CS(C)(=O)=O)c2ccccc2)sc1C` (stereo not drawn) | -25.93% | 3.857% |
| `CN(C)c1ccc(NC(=O)N2CCCCC2c2ncc[nH]2)cn1` (stereo not drawn) | 8.801% | -3.816% |
| `CC(CNC(=O)NCc1ccco1)CC1(C)OCCO1` (stereo not drawn) | -18.16% | 0.5394% |
| `CN(Cc1cccc(C#N)c1)Cc1nc2c(cnn2C)c(=O)[nH]1` | -3.883% | 6.395% |
| `NC1CCCN(C(=O)c2csc(-c3ccc(C(F)(F)F)cc3)n2)CC1` (stereo not drawn) | -17.68% | 29.88% |
| `Cc1nn(C2CCS(=O)(=O)C2)c(O)c1CCc1ccccc1` (stereo not drawn) | -24.04% | -23.78% |
| `CC(C)CC(CCO)CNC(=O)N1CC(C)(C)C1(C)C` (stereo not drawn) | -7.394% | 8.673% |
| `O=C(NC1CCCN(c2ccc(OC(F)F)cc2)C1)c1ccon1` (stereo not drawn) | -0.8488% | 0.1815% |
| `[H][C@@]12CN(C3CCOCC3)C[C@]1([H])N(CCCc1ccc(F)cc1)C(=O)O2` | 18.28% | 2.959% |
| `O=C(O)C(F)(F)F.[H][C@@]12C[C@H](C(=O)N3CCCCO3)CN(Cc3ccoc3)[C@]1([H])CCO2` | 34.68% | -7.066% |
| `CN(C)Cc1nc(C(C)(C)NC(=O)c2ccc3ccccc3c2)no1` | -11.61% | 0.3277% |
| `Cc1ccccc1C(=O)NC[C@@H]1CCN(C(=O)c2cccn2C)C[C@H]1O` | 8.465% | -34.96% |
| `CCn1ccc(C(=O)N(C)Cc2cnn(-c3cccc(OC)c3)c2)n1` | -0.3526% | 11.07% |
| `COc1cccc(C2(CNC(C)c3nnc(C)o3)CCCC2)c1` (stereo not drawn) | -0.04791% | 7.442% |
| `c1ccc(-n2ncc(CNC3CCc4ncnn4C3)n2)cc1` (stereo not drawn) | 10.26% | 7.143% |
| `CCCC(=O)N(C)c1cc(C#N)c2ccccc2n1` | 1.641% | 20.42% |
| `CNC(=O)C1CN(c2cc(C)ncn2)CCN1Cc1ccccc1` (stereo not drawn) | -5.457% | 10.07% |
| `Cc1nc(NCc2nccn2C)cc(C2COCCN2)n1` (stereo not drawn) | 28.35% | 8.739% |
| `CCOC(=O)c1ccccc1NC(=O)CN(C)Cc1ccccc1Cl.O=C(O)C(=O)O` | 23.74% | -1.127% |
| `COC(=O)CNC(=O)C1(N(C)Cc2ccccc2)Cc2ccccc2C1` | 26.03% | 14.42% |
| `Cc1cc(C)c(CNC(=O)N2CCCN(C(=O)C(C)C)CC2)c(C)c1` | -55.36% | -13% |
| `Cc1n[nH]c(C)c1NC(=O)CN1CCCC(CNC(=O)C(C)(C)C)C1` (stereo not drawn) | 22% | -14.54% |
| `Cn1cnc(S(=O)(=O)N2CC3(CCN(c4ccccc4)C3)C2)c1.O=C(O)C(F)(F)F` | -3.026% | -7.051% |
| `CCOCC1CN(C(=O)c2cnoc2C)Cc2cnn(C)c21.O=C(O)C(F)(F)F` (stereo not drawn) | 0.2196% | 18.69% |
| `O=C1CCc2cc(S(=O)(=O)NCc3cc4n(n3)CCNC4)ccc2N1` | -13.61% | 21.48% |
| `CCc1nnc(Nc2cccc(C3CCN(CCO)CC3)n2)s1` | 20.13% | 27.87% |
| `CCS(=O)(=O)N1CCCC2(COCCN(c3ccccn3)C2)C1.O=C(O)C(F)(F)F` (stereo not drawn) | 20.65% | -5.465% |
| `Cl.O=C(NCCn1nc(C2CCNC2)c2cccnc21)c1ccccn1` (stereo not drawn) | -9.534% | -24.81% |
| `O=C(c1nc(=O)[nH]c2ccccc12)N1CCCC(CC2CC2)(C(=O)O)C1` (stereo not drawn) | -1.885% | 3.283% |
| `Cc1nn(C)c2c(NCc3ccc(F)cc3)nc(C3CC3)nc12` | -9.89% | 39.36% |
| `[H][C@@]12C[C@H](C(=O)NCc3ccccc3)[C@@]([H])(CN(C(=O)NC(C)C)C1)O2` | -5.656% | -4.538% |
| `CN(Cc1ccco1)Cc1ccccc1CNC(=O)c1c[nH]nn1` | 22.66% | 1.643% |
| `CCN(CC)c1ncc(Cl)c(C(=O)NC2CCC(O)CC2)n1` (stereo not drawn) | -32.02% | 3.743% |
| `O=C1CCCN1CCC1CCCCN1C(=O)c1ccc(SCCO)cc1` (stereo not drawn) | 33.34% | 2.686% |
| `CNc1cc2c(nn1)CCN(C(=O)c1cccc3c1OCCO3)C2` | 21.92% | -12.04% |
| `O=C(O)C(F)(F)F.[H][C@@]12C[C@H](C(=O)NC3CC3)CN(CC3CCOCC3)[C@]1([H])CCO2` | 7.29% | -1.389% |
| `CNC(=O)CN1CCOCC2(C1)CN(C(=O)C(C)C)CCO2.O=C(O)C(F)(F)F` (stereo not drawn) | -36.06% | 2.589% |
| `CCN(Cc1ccncc1)C(=O)c1cn(CCCc2ccccc2)nn1` | -11.51% | -6.317% |
| `Cc1nc(Nc2ncccn2)cc(C2CN(C(=O)c3cccnc3)C2)n1` | 1.84% | -13.61% |
| `CN(Cc1cccc(-n2cccn2)c1)c1cc(N2CCCC2)nc(N)n1` | 39.69% | 1.335% |
| `CN1CCCC(c2cncc(C(=O)NCc3ccccc3Cl)n2)C1.O=CO` (stereo not drawn) | -19.9% | 6.072% |
| `[H][C@]12CCC[C@@]1(COc1cccnc1)CN(Cc1cnn(C)c1)C2` | 41.99% | -12.71% |
| `O=C(O)C(F)(F)F.[H][C@@]12CCN(c3ncccn3)[C@@]1([H])CCN2C(=O)NC(C)C` | 3.894% | -12.83% |
| `CC(Cc1ccc2c(c1)OCO2)c1cn(CCc2c[nH]cn2)nn1` (stereo not drawn) | 5.119% | 4.909% |
| `CC(CCSc1ccccc1)N1CCN(C(=O)c2cccs2)CC1` (stereo not drawn) | -12.34% | 7.91% |
| `CCc1noc(C(C)N2CCN(C)CC2)n1` (stereo not drawn) | -6.549% | 8.16% |
| `O=C(COCc1ccccc1)N1CCCC(OCc2cccnc2)C1` (stereo not drawn) | -9.83% | -17.94% |
| `[H][C@]12CN(Cc3ccccc3C)CC[C@@]1(O)CCN(C(=O)C1CCC1)C2` | 15.49% | -1.646% |
| `CC(NC(=O)c1cccs1)C(=O)NCc1cccnc1N1CCCCC1` (stereo not drawn) | 0.4985% | 2.012% |
| `COc1ccc(C(=O)NCCCOC(C)c2ccccc2)c(OC)c1` (stereo not drawn) | -10.46% | 61.13% |
| `O=C1NCCCc2[nH]c(-c3nc(C4CC4)no3)nc21` | 0.06758% | -0.3309% |
| `O=S(=O)(NCc1cccnc1OC1CCCC1)N1CCOCC1` | 5.554% | -2.7% |
| `CC1=CCN(S(=O)(=O)c2cccc(C(=O)N3CCOCC3)c2)CC1` | -3.971% | -0.6732% |
| `COC(=O)c1ccn(COc2ccccc2Cl)n1` | -5.219% | 14.58% |
| `COc1cccc(C2CC(=O)Nc3c2c(=O)n(C)c2ncnn32)c1` (stereo not drawn) | -6.674% | 1.706% |